From patent US20110104121A1, “Female Reproductive Tract and Anal Prophylaxes” (priority 2008, published 2011)
Marks after values point to notes of the source that are not given here.

Assay: systemic inflammatory response to E. coli endotoxin after hydrocortisone pre-treatment in volunteers
Assay type: in vivo, human
Settings: for 4 Hour CD14+ / 4 Hour MO / 4 Hour PMN / 4 Hour WBC: 4 hours after LPS; for 24 Hour CRP: 24 hours after LPS; for PEAK HR: after 2 ng/kg LPS; for PEAK T: after LPS; for BASE CD14+ / BASE CRP / BASE MO / BASE T / BASE WBC / Base PMN / BASE HR: before LPS
Source text: Materials and Methods. Participants (n=36) were healthy male and female volunteers who were taking no chronic medications (other than oral contraceptives) and who were between the ages of 18 and 55.
On Day 1 of the study, participants were randomized in a double-blind manner to a Control Group, a Stress Group or a Pharm Group. A peripheral intravenous catheter was inserted in a hospital outpatient facility where participants remained during the day. For six hours, Control Group participants received intravenous saline at […] by infusion pump; Stress Group participants received 1.5 μg/kg/minute hydrocortisone (SOLUCORTEF®, Upjohn) in normal saline at 10 ml/hour, and Pharm Group participants received 3.0 μg/kg/minute hydrocortisone in normal saline at 10 ml/hour. The following day (Day 2), participants were admitted to an acute care facility where a peripheral intravenous catheter was again inserted in a proximal arm vein. Continuous electrocardiographic and pulse oximetry measurements were initiated; blood pressure and core temperature were measured every 15 minutes for the next five hours and every 30 minutes for the next 4 hours. Participants received 10 ml/kg lactated Ringer's solution intravenously over the first 2 hours after which the infusion was decreased to 1.5 ml/kg/hour. After the first hour, participants were administered 2 ng/kg E. coli endotoxin intravenously over 2 minutes. Participants remained in the acute care facility for remainder of the day with continuous nursing care and under the direct supervision of a physician. The intravenous catheter was removed after 9 hours. The following day (Day 3) and 2 days later (Day 5), repeat blood samples were obtained by venipuncture.
Salivary free cortisol measurements were made on Day 1 to compare the in vivo cortisol pre-treatment with laboratory reports that typically test the effects of free glucocorticoid concentrations. On Day 2 of the study, total plasma cortisol was measured to allow for comparison with the many clinical reports that have assessed these hormones during experimental endotoxemia and in endotoxemic patients. For salivary free cortisol measurements, saliva samples were collected with a […]™ collection device and stored at −80° C. until analysis by SALIMETRICS® Expanded Range High Sensitivity Salivary Cortisol Enzyme Immunoassay Kit (State College, Pa.). The analytical sensitivity of this assay is 3 ng/dL. For total cortisol, plasma was separated from heparinized whole blood and stored at −80° C. until analysis for plasma cortisol on an […]® 1000 analyzer using a Siemens Cortisol kit (Los Angeles, Calif.). The analytical sensitivity of this assay is 0.2 μg/dL. All adrenocorticotropic hormone (ACTH) measurements were performed on the […]® 1000 analyzer using a Siemens ACTH kit (Los Angeles, Calif.). The analytical sensitivity of this assay is 9 pg/mL. C-reactive protein (CRP) measurements were performed on the Roche P Module using the Roche High Sensitivity CRP kit (Indianapolis, Ind.). Analytical sensitivity of this assay is 0.1 mg/L. Complete blood counts were performed on the ADVIA 120® Hematology Analyzer using Siemens reagents (Ramsey, Minn.).
Plasma samples were collected and frozen at −80° C. for batched measurement of TNFalpha, IL-6 and IL-10 concentrations. TNFalpha was measured using a TNFalpha sandwich ELISA (paired antibodies; BD Biosciences Pharmingen, San Diego, Calif.). IL-6 levels were determined using an IL-6 ELISA kit (Peprotech, Rocky Hill, N.J.). IL-10 was measured using an IL-10 ELISA kit (Biosource, Camarillo, Calif.). Further cytokine testing was completed on frozen samples using multiplex immunobead technology (Luminex Corp.) which combines the principle of a sandwich immunoassay with fluorescent bead-based technology, allowing individual and multiplex analysis of multiple analytes in a single microtiter well. […]

C[C@]12CCC(=O)C=C1CC[C@@H]1[C@@H]2[C@@H](O)C[C@@]2(C)[C@H]1CC[C@]2(O)C(=O)CO [hydrocortisone]
4 Hour CD14+ (Pharm 3 μg/kg/min): 17.6* % PBMNCs | 4 Hour MO (Pharm 3 μg/kg/min): 85 per ml | 4 Hour PMN (Pharm 3 μg/kg/min): 8390 per ml | 4 Hour WBC (Pharm 3 μg/kg/min): 9.1 × 10^3 per ml | 24 Hour CRP (Pharm 3 μg/kg/min): 44.0 mg/L | PEAK HR (Pharm 3 μg/kg/min): 106 bpm | PEAK T (Pharm 3 μg/kg/min): 38.1 °C | BASE CD14+ (Pharm 3 μg/kg/min): 17.2 % PBMNCs | BASE CRP (Pharm 3 μg/kg/min): 1.8 mg/L | BASE MO (Pharm 3 μg/kg/min): 264 per ml | BASE T (Pharm 3 μg/kg/min): 36.5 °C | BASE WBC (Pharm 3 μg/kg/min): 7.0 × 10^3 per ml | Base PMN (Pharm 3 μg/kg/min): 4842 per ml | BASE HR (Pharm: hydrocortisone 3 μg/kg/min iv 6 hours on Day 1): 70 bpm | 4 Hour CD14+ (Stress 1.5 μg/kg/min): 17.9* % PBMNCs | 4 Hour MO (Stress 1.5 μg/kg/min): 112 per ml | 4 Hour PMN (Stress 1.5 μg/kg/min): 8353 per ml | 4 Hour WBC (Stress 1.5 μg/kg/min): 9.1 × 10^3 per ml | 24 Hour CRP (Stress 1.5 μg/kg/min): 51.0 mg/L | PEAK HR (Stress 1.5 μg/kg/min): 111 bpm | PEAK T (Stress 1.5 μg/kg/min): 38.4 °C | BASE CD14+ (Stress 1.5 μg/kg/min): 17.1 % PBMNCs | BASE CRP (Stress 1.5 μg/kg/min): 2.6 mg/L | BASE MO (Stress 1.5 μg/kg/min): 297 per ml | BASE T (Stress 1.5 μg/kg/min): 36.6 °C | BASE WBC (Stress 1.5 μg/kg/min): 6.8 × 10^3 per ml | Base PMN (Stress 1.5 μg/kg/min): 4312 per ml | BASE HR (Stress: hydrocortisone 1.5 μg/kg/min iv 6 hours on Day 1): 73 bpm
